This is an account of results in publication doi:10.1101/2025.10.31.685804.

Amino acid sequences for entries named in this document (tags omitted). A change or cut given only in a name is not applied to a line headed by its entry.
UniProt O94979: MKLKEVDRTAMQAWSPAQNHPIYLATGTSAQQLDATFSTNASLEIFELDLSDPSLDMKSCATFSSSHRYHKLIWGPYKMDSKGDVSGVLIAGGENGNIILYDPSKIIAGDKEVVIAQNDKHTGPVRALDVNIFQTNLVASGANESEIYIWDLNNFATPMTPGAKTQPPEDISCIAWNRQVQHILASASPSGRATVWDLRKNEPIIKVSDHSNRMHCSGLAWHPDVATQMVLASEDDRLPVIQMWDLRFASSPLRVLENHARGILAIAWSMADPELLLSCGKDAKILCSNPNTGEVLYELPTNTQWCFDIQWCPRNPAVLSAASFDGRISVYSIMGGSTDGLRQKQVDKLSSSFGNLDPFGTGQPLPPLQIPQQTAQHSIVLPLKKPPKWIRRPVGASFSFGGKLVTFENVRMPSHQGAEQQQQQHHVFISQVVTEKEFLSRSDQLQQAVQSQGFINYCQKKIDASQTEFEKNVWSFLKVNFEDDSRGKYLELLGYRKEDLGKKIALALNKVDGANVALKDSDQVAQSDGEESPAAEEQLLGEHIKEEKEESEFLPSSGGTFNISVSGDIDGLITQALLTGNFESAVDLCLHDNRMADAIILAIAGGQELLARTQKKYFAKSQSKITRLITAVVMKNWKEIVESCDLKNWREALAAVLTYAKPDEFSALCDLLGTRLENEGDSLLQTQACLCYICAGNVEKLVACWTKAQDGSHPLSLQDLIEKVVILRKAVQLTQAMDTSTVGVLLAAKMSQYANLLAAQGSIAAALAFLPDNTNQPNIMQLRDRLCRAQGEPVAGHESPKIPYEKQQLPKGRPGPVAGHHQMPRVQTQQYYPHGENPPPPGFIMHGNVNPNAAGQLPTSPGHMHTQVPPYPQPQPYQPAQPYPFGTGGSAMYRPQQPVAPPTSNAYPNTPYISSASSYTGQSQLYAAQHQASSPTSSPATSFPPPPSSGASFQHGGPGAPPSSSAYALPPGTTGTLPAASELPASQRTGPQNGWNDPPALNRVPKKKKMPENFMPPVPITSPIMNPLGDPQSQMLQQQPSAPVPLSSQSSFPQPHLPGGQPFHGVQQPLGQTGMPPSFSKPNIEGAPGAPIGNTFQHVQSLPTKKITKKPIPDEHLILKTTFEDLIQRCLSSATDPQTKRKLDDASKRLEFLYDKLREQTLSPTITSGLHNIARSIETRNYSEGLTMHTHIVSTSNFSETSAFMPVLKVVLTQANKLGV

Assay [1] concerns the target EYFP-SEC31A 3SA (phospho-deficient) (UniProt O94979). Kind of assay: co-IP.
Assay [2] concerns the target EYFP-SEC31A 3SD (phospho-mimetic) (UniProt O94979). The assay is described as follows: co-IP.

These are yes or no findings as the source states them, for the method shown. In cells and extracts the contact can be indirect. Binding calls can cover weak binding; strength is not graded here.

B1: wild-type ULK1 (Unc-51-like kinase 1) (enzyme, UniProt O70405 1-1051)
chain: MEPGRGGVETVGKFEFSRKDLIGHGAFAVVFKGRHREKHDLEVAVKCINKKNLAKSQTLLGKEIKILKELKHENIVALYDFQEMANSVYLVMEYCNGGDLADYLHTMRTLSEDTVRLFLQQIAGAMRLLHSKGIIHRDLKPQNILLSNPGGRRANPSNIRVKIADFGFARYLQSNMMAATLCGSPMYMAPEVIMSQHYDGKADLWSIGTIVYQCLTGKAPFQASSPQDLRLFYEKNKTLVPAIPRETSAPLRQLLLALLQRNHKDRMDFDEFFHHPFLDASTPIKKSPPVPVPSYPSSGSGSSSSSSSASHLASPPSLGEMPQLQKTLTSPADAAGFLQGSRDSGGSSKDSCDTDDFVMVPAQFPGDLVAEAASAKPPPDSLLCSGSSLVASAGLESHGRTPSPSPTCSSSPSPSGRPGPFSSNRYGASVPIPVPTQVHNYQRIEQNLQSPTQQQTARSSAIRRSGSTTPLGFGRASPSPPSHTDGAMLARKLSLGGGRPYTPSPQVGTIPERPSWSRVPSPQGADVRVGRSPRPGSSVPEHSPRTTGLGCRLHSAPNLSDFHVVRPKLPKPPTDPLGATFSPPQTSAPQPCPGLQSCRPLRGSPKLPDFLQRSPLPPILGSPTKAGPSFDFPKTPSSQNLLTLLARQGVVMTPPRNRTLPDLSEASPFHGQQLGSGLRPAEDTRGPFGRSFSTSRITDLLLKAAFGTQASDSGSTDSLQEKPMEIAPSAGFGGTLHPGARGGGASSPAPVVFTVGSPPSGATPPQSTRTRMFSVGSSSSLGSTGSSSARHLVPGACGEAPELSAPGHCCSLADPLAANLEGAVTFEAPDLPEETLMEQEHTETLHSLRFTLAFAQQVLEIAALKGSASEAAGGPEYQLQESVVADQISQLSREWGFAEQLVLYLKVAELLSSGLQTAIDQIRAGKLCLSSTVKQVVRRLNELYKASVVSCQGLSLRLQRFFLDKQRLLDGIHGVTAERLILSHAVQMVQSAALDEMFQHREGCVPRYHKALLLLEGLQHTLTDQADIENIAKCKLCIERRLSALLSGVYA
As to B1, the binding result in assay [1] and in assay [2] was “binds” throughout.
